Measured values taken from paper PMC11788215.
No constants are given. Whether binding was seen depends on the method and setting. In cells and extracts the contact can be indirect. Some binding calls cover weakened binding; strength is not graded here.

Protein sequences, listed by entry. Tags and fused reporters are not part of them.
UniProt Q9BPZ7: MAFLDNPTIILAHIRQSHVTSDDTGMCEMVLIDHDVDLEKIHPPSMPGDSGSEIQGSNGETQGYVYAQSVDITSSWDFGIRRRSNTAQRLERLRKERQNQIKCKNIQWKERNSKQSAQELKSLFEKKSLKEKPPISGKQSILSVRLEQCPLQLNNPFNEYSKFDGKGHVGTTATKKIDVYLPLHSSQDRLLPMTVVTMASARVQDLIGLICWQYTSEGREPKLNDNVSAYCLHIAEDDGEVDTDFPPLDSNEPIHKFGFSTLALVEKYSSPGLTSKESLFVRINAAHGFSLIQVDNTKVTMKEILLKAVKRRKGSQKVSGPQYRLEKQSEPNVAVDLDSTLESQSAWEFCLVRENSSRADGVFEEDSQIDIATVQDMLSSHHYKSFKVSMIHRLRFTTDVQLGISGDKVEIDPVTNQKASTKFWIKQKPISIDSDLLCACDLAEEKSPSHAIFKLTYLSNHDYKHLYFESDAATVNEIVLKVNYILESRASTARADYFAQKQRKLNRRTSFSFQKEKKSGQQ
UniProt Q9H4A3: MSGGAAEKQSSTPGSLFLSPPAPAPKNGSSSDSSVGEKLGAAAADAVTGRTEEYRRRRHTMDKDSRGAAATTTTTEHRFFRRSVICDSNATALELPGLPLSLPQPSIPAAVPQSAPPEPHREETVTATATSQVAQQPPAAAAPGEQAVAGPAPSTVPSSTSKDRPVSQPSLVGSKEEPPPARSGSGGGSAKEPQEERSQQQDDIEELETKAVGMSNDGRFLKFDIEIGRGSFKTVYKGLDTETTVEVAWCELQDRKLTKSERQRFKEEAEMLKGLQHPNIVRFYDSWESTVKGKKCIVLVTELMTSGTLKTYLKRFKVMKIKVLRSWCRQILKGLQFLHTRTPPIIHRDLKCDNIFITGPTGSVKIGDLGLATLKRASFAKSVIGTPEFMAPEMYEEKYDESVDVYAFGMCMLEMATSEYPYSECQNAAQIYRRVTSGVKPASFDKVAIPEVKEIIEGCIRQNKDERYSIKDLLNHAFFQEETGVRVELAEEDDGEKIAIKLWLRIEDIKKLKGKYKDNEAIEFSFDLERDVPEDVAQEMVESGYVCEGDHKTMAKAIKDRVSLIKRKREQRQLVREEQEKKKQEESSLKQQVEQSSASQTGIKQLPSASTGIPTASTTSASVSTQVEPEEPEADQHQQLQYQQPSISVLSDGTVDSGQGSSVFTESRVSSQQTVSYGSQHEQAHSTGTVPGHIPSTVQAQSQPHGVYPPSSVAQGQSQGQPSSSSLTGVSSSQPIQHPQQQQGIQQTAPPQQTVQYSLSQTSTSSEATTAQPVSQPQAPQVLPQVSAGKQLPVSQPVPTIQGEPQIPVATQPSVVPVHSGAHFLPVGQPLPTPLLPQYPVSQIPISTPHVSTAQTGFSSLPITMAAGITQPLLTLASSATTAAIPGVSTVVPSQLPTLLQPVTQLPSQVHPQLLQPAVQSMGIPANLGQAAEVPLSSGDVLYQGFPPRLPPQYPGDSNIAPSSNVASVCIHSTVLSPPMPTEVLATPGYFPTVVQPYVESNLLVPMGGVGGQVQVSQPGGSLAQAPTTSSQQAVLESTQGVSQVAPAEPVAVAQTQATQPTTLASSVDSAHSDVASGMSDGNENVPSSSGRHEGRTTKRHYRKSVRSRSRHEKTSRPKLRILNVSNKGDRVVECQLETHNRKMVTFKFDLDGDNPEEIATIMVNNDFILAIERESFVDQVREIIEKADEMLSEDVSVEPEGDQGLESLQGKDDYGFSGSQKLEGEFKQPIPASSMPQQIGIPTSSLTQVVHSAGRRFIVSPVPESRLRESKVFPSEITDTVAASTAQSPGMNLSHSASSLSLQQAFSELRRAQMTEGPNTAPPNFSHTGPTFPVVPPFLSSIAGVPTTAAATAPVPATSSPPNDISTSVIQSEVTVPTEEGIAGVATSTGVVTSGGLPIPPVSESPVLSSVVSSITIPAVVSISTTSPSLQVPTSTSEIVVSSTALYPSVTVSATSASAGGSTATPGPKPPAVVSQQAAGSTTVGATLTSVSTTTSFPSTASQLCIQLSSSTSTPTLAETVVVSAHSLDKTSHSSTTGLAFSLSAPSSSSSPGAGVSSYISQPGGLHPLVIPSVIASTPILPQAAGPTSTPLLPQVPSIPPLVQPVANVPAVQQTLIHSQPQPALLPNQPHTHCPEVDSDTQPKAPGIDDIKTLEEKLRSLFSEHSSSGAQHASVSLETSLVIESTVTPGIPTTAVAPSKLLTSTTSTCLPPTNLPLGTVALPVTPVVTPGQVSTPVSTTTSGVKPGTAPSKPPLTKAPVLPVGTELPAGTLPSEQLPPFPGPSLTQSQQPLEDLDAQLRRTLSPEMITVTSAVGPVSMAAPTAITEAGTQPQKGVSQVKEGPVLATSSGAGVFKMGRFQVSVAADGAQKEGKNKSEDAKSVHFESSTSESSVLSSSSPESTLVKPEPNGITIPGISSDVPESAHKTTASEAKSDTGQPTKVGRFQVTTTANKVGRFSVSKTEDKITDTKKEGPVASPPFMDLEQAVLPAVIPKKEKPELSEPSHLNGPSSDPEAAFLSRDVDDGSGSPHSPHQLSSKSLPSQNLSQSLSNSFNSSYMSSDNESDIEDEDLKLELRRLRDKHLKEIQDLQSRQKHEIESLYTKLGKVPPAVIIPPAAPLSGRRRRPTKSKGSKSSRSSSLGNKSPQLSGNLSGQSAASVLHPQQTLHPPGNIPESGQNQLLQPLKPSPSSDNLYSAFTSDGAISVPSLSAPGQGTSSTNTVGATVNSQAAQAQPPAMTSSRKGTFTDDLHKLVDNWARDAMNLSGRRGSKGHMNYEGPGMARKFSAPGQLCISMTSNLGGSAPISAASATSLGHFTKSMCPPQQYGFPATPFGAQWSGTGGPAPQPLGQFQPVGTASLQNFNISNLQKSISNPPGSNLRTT

Molecular target: mSIN1 subunit of mTORC2 (human (endogenous in MCD cortical tissue)) (UniProt Q9BPZ7)
Experiment: co-IP; endogenous proteins in lysate supernatant of human MCD cortical samples; 2 µg anti-WNK1 Ab or anti-mSIN1 Ab, 60 min at room temperature, Dynabeads protein G; western blot with anti-mTOR, anti-WNK1 or anti-SPAK/OSR1; for the mSIN1 IPs slices were pretreated 30 min with DMSO, rapamycin or WNK463 (less co-precipitate with the inhibitors); normal IgG as negative control

How did the binding turn out when WNK1 (from UniProt Q9H4A3 1-2382) was run?
The binding was “binds”.
